Variants at the background level are over-represented here.

B1: tRNA (parent)
chain: GUUCCGUUGGCGUAAUGGUAACGCGUCUCCCUCCUAAGGAGAAGACUGCGGGUUCGAGUCCCGUACGGAACG

Variants of B1 are the subject of this series. The experiment in a line: yeast fitness relative to wild type (ratio to wild type); higher = fitter; tRNA-Arg(CCU), competitive growth, 37 C, YPD. Put shortly: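 Changes in genotype frequencies gave Darwinian fitness relative to wild type. Frequencies were read by 100-nucleotide paired-end sequencing of gene amplicons before and after pooled Saccharomyces cerevisiae strains, carrying tRNA-Arg(CCU) gene variants at the native locus, were competed in YPD at 37°C for 24 hours in six replicates. A genotype was kept only with ≥ 100 starting reads, and estimates < 0.5 were set to 0.5.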
Regarding GUUCCGUUCGCGUAUUGGUAACGCGUCGCCCUCCUAAGGAGAAGACUGCGGGUUGGAGUCCCGUACGGUACG [G9C A15U U28G C55G A69U], the yeast fitness was found to be 0.599.

GUUCCCUUGGCGUAAUGGUAACGCGCCUCCCUCCUAAGGAGACGACUGCGGGUUCGGGUCCCGUACGGAACG [G6C U26C A43C A57G]: the yeast fitness is ≤ 0.5.

Regarding GUUCCGUUGGCGUAAUCGUAACGGGUCACUCUCCUAAGGAGAAGACUGCGGGUUCGAGUCCGGUAGGGAACG [G17C C24G U28A C30U C62G C66G], the yeast fitness was ≤ 0.5.

Turning to GUUCCGUUGGAGUAAUGGUAACGCGUCUCCCUCCGAAGGAGAAGAAUGUGGGUUCGAGUCCCGUACGGAACG [C11A U35G C46A C49U], the yeast fitness is ≤ 0.5.

As for GUUGCGUUGGAGUAAUGGUAACGAGUCGCCCUCCUAAGGAGAAGACGGGGGGUUGGAGUCCCGUACGGAACG [C4G C11A C24A U28G U47G C49G C55G], the yeast fitness is ≤ 0.5.

In the case of GUUUAGUUGGCGUAAUGGUAACGCGUCUCCCUCCUAAGGCGAAGACUGCGGGUUCGAGUCCCGAACGGAACG [C4U C5A A40C U64A], the yeast fitness is ≤ 0.5.

With GUUCCGUUGGCGUAAUGGUAACGCGUCUGCCUCCUAAGGAGAAGACUGCGGGUUCGCGUCCCGUAGGGAACG [C29G A57C C66G], the yeast fitness was ≤ 0.5.

GUUCCGGUGGUGUAAUGGUAACGCGUCUCCCUCCUAAAGAGAAGACUGCGAGUACGAGUCCCGUACGGAACG [U7G C11U G38A G51A U54A]: the yeast fitness was ≤ 0.5.

On to GUUCCGUUGGCGUAAUGGUAACGCGUCUCCCUCCUAAGGAGAAGACUGCGGGAUCGAGUGCCGUACAGACCG [U53A C60G G67A A70C], for which the yeast fitness was ≤ 0.5.

For the variant GUUCCGUUGGCGUAAUGGUAACGCGUCUCCCUCCUAAGCAGAAGACUGGGGGUUCGAGUCCCGUAUGGAACG [G39C C49G C66U], the yeast fitness was ≤ 0.5.

In the case of GUUCCGUUCGCGUAAUGGUAACGUGUCUCGCUCCUAAGGAGAAGACUGCGGAUUCGAGUCUCGUACGGAACG [G9C C24U C30G G52A C61U], the yeast fitness was ≤ 0.5.

In the case of GAUCCGUUGGGGUAAUGGUAACGCGUCUCCCUCGUAAGGAGAAGACUGCGGGUUCGAGUCCCGGACGGAACG [U2A C11G C34G U64G], the yeast fitness was ≤ 0.5.

As to GUUCCGUUGGCGUAAAAGUAACGCGUCUCCCUCUUAAGGAGAAGACUGCGGGUUCGAGUCCCGUAUGGAUCG [U16A G17A C34U C66U A70U], the yeast fitness was ≤ 0.5.

With GUUCCGUUGGCGUAAUGGUAACGCGUCUGCCUCCUAAGGAGAAGACUGCGAGUUCGAGUCCCGUACGGUACG [C29G G51A A69U], the yeast fitness is ≤ 0.5.

For the variant GUUCCGUUGGUGUAAUGGUAACGCGUCUCCCUCCUAAGGAGAAGUCUGCGGGUUCGAGUCCCGUAAGGAACG [C11U A45U C66A], the yeast fitness came to 0.659.

In the case of GUUCCGUUGGCGUAAUGGUAACGCGUCGCCCUCCUAAGGAGAACACUCCGGGUUCGAGUCCCGUACGGAACG [U28G G44C G48C], the yeast fitness was 0.556.

With GUUCCGAUGACGUAUUGGUAACGCGUCUCCCUCCUAAGGAGAGGACUGCAGGUUCGAGUCCCGUAUGGAACG [U7A G10A A15U A43G G50A C66U], the yeast fitness was ≤ 0.5.

For the variant GUUCCGUUAGCGUCAUGGUAACGCGUCUCCCUCCUAAGGAGAAGACUGCGGGUUCGAGAGCCGUACCGAACG [G9A A14C U59A C60G G67C], the yeast fitness was ≤ 0.5.

For GUUCCGUUGGCGUAAUGGUAACGCGUGUCCCUCCUAUGGAGGAGACUGCGGGUUCGAGUCCCGUACGGAACG [C27G A37U A42G], the yeast fitness is ≤ 0.5.

Take GUUCCGUUGGCAUAAAGGUAGCGCGUGUCCCUCCUAAGGAGAAGAUUGCGGGUUCGAGUCCCGUACGGAACG [G12A U16A A21G C27G C46U]: the yeast fitness is ≤ 0.5.

For the variant GUUCCGUUGGCGUAAUGGUAACGCGUCGCCCUCCUAAGGAGAAGACUGCGGGAUCGAGUCCCGUACGGAACG [U28G U53A], the yeast fitness was ≤ 0.5.

As to GUUCCGUUGGCGGAAUGGUAACGCGUCUCCCUCCUAAGGAGAAGACUACGGGUUCGAGUCCCGUACGGAACG [U13G G48A], the yeast fitness turned out to be 0.986.

For GUAUUGUUGGCGUAAUGGUAACGCGUCUCCCUCCUAAGGAGAAGACUCAGGGUUCGAGUCCCGUACCGAUCG [U3A C4U C5U G48C C49A G67C A70U], the yeast fitness was determined as 0.663.

As for GUUGCGUUGGCGUAAUGGUAACGCGUCUCCCUCCUAAGGAGAAGCCUCCGGGUUCGAGUCCCGUACGGAACG [C4G A45C G48C], the yeast fitness is ≤ 0.5.

Regarding GUUGCGUUGGGGUAAUGGUAAUGCGUCUCCCUCCUAAGGAGAAGACUGCGGGUUUGAGUCACGUACGGAACG [C4G C11G C22U C55U C61A], the yeast fitness is ≤ 0.5.

On to GUUACGUCGGCGUAGUGGUAACGCGUCUCCCUCCAAAGGAGAAGACUGCGGGUUCGAGUCCCGUACGGAACG [C4A U8C A15G U35A], for which the yeast fitness is ≤ 0.5.

As to GUCCCCUUGGCGUUAUGGUAACGCAUCUCCCUCCUAAAGAGAAGACUGCGGGUUCGAGUCCCGUACGGAACG [U3C G6C A14U G25A G38A], the yeast fitness was ≤ 0.5.

GUUGCGUUGGCGUAAUGGUAACGCGUCUCCCUCCUAAGGAGUAGACUGCGGGUUUGAGUCCGGUACGGACCG [C4G A42U C55U C62G A70C]: the yeast fitness was ≤ 0.5.

As for GUUCCGUUGGCGUGAUGGUAACGCGUCCCCCUCCUAAGGAGAAGACUGCGGGUUCGAGUCCCGUACAGAACG [A14G U28C G67A], the yeast fitness came out at 0.534.

In the case of GUUCCGUUGGCGUAAUGGUAACGCGUCUCCCUCCUAAGGAGACGACUGCGGGUUCGAGUCCCGGACGGAACG [A43C U64G], the yeast fitness amounted to 0.618.

Take GUUCCGUUGGCGUAAUGGUAACGCGUCUCCCUCCUAAGGAGUAGACUGCGGGUUCGAGUUGCGUACGGAACG [A42U C60U C61G]: the yeast fitness was ≤ 0.5.

Regarding GUUCUGUUGGCGUAAUAGUAACGCGUCUCCCUCCUAAGGAGAAGACUGCGGGUUCGAGUCCCGUACGGAACG [C5U G17A], the yeast fitness turned out to be 0.929.

As for GUUCCGUUGGCGUAAUGGUAACGCGUAUCCCUCCUAAGAAGCAGACUCCGGGUUCGAGUUCCGUACGGAACG [C27A G39A A42C G48C C60U], the yeast fitness was ≤ 0.5.

Regarding GUUCCGUUGGCGUACUGGUAACGCGUCUCCUUCCGAAGGAGAAGACUGCGGGUUCGAGUCCUGUACGGAACG [A15C C31U U35G C62U], the yeast fitness was ≤ 0.5.

On to GUUCCGUUGGUGUAAUGGUACCGCGUCUCCCUCCUAAGGAGGAGACUGCGGGUUCGAAUCCCGUACGGCGCG [C11U A21C A42G G58A A69C A70G], for which the yeast fitness was ≤ 0.5.

On to GUUCCGUUGGCGUAAUGGUCACGCGUCUGCCUCCUAAGGAGAAGACUGCGGGUUCGAGUCUCGUACGGAACG [A20C C29G C61U], for which the yeast fitness is ≤ 0.5.

As to GUUCCGUUGGCGUAAUGGUAACGCAUUUCCCUCCUUAGGAGAAGACUGCGGGUUCGAGUCCCCUACGGAACG [G25A C27U A36U G63C], the yeast fitness is ≤ 0.5.

With GUUCCGAUGGCGUUCUGGUAACGCGUCUCCCCCCUAAGGAGAAGAUUGCGCGUUCGAGUCCCGUACGGAACG [U7A A14U A15C U32C C46U G51C], the yeast fitness was ≤ 0.5.

The record behind these values is the RNAGym collection of RNA variant scans (doi:10.1126/science.aae0568).
